Results published in publication PMC4916389.

Sequences of proteins named here, by UniProt entry; tags and fusion partners are left off. A change or cut given only in a name is not applied to a line headed by its entry.
UniProt F7W245: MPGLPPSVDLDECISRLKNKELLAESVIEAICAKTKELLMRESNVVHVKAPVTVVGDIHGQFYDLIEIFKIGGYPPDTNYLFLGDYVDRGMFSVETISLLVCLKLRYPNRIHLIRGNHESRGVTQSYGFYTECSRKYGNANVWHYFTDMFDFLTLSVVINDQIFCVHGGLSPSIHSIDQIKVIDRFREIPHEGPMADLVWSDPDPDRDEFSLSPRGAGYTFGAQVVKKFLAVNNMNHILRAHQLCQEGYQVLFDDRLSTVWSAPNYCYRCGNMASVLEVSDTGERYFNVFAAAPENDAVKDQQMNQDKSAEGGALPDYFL

B1: PUB1 (SMAC_02147), putative poly(A) RNA binding protein (protein, UniProt F7W137 1-495)
chain: MADAGPPPTTGQLPPPPQPNAGAPGYENGQNNNSNPAHMPPPPLHIPQNTNPIPTAITSPMGGNGDTSGIMSPTSAGNPFGRRAAPEPNKRALYVGGLDPRVTEDVLRQIFETTGHVQNVKIIPDKNVGKPGSPEQPHDAQQQKGYNYGFVEYDDPGAAERAMQTLNGRRVHQSEIRVNWAYQSNNQNKEDTSGHFHIFVGDLSNEVNDEVLLQAFSAFGSVSEARVMWDMKTGRSRGYGFVAFRDRPDAEKALSSMDGEWLGSRAIRCNWANQKGQPSIAQQQAMQQMGLTPTTPYGHHHFPTHGVHSYDMIVAQTPAWQTTCYVGNLTPYTTQNDLVPLFQNFGYVVESRFQADRGFAFIKMDTHENAAMAICQLNGYQVNGRPLKCSWGKDKTPNPQQFDPNQPYSPQSAQTPGYPGTPSTYFNQYGNSYPGQQANYNGPQAQSPAGYGSQMGYNGPPSAGGYGRGQPGPNAQWNQPSPAQNFGNGFGGYQG
B2: DEF (SMAC_00817), protein probably involved in RNA polymerase II degradation (protein, UniProt F7VN58 1-988)
chain: MSEVQSRPVAARGRGSGRGGRGGLSTRGGRSATRTNGDSAESSSLPSLEDEGEIGQLKKQYGSKVAIIKEMFPDWSDVDVLFALNETDGDESLAVTRIAEGTISQWGEVTKPKKVSKPKTKTDTFTSTPVDSFPGSTRPARGGRVESGRGRGRATERGGRGGGRGKPLNATINGHKTTESEKLSVPTDEANVWGTPKPAEEASGWPEESSPATETPAAAPAPVALKPVGPAQKTWASMLRQSVPKPAPKPKEVAPPKPAEPVIEPLPPVAEPTPVEPEVQAEPEAAEPEVPTPVEEPTPEPVKKEATPPPPPAVPALPIVPIEPALPAIPVVPEVALKPSKDQLTETNLEQVADDSHPPQTETAASEAADSWDPRAQAPSVTATPNSASQQQHQTSRAPGSGFATTASKATDRTSTRTPTYARRILDQQEPVRMPGNRDQVDRAAVQFGAFSLNEEDDIDGDREEPETRPQPPQDSPVTQPRASLPPVQPAPVPETFAAQKPAASLPPTGPASTTTTAPPTAPTQPSAAAAVSQGAYYLPISSLVDDSLKTPAEAATQPPTAPATQQFGRFGQPAPQEPASFGASKPFDAFGQQPGAVAAQTQYETGFPGQGQAAQTQNQQQPVGAFSSAPSDYSQYYTADQSRYNYYGQNNFGQQQGAQGQQDGLSQPQRGFGYNAPQADNLSQYPQSGAQHTQTRFGSGSEMAGTPTPNQAGTQAQTAQTTQAQTHGQQQPHDQYGPYGSHPYYSNPYYSAYMNYNGYNQGAYGAPYGKGNLGYQPNQYGMSPQAPHGYASSPAGFGQSTLHRETGVGAAGLNDYGRTASGQTAQQQGLGGSGFGGMHDAFGRGGSSYQSQAGQSFNAPGTQPGAGPSASDDLKPFGDSKAASGPSPALGGAARPGSATNNAPSQSGLPPPQSNQQSGLGGMGSYGYPNHLQGHGLHNNQQTGTGYGMGATGSQGHQNTYGSYGGQGFGGGYYGNPPRGGWGNNYH
B3: putative methyltransferase SMAC_09155 (protein, UniProt F7WBD3 1-375)
chain: MSSPFKKAQSPASEPKSPKGKEKSPTPAPTSPVGDESLEPVGLLPGAHWGQQVQEMDEDNDSTLGSDTESSTASISSSILHYRSVLGRTYHSDSVTDTEYWGPNDAKANELLDIMHATLVMLFDGKLYTSPLNEKEIKNAIDIGTGTGVWAIDFADDHPNCNVVGTDISPIQPTWLPPNACFEINDATKQWTYQENYFDFIHLRWLTGVIQDWNALYKEAYRCAKPGAWIEHLDVDAQFYCFDGTMPEKSAMAQWGPIWKEVGRKTGLEFNVVSSNTMEKGLKNAGFTNITSEDYYVPASSWSDDEKMKQLGIYNSVAMTHDVEGFLVYFMSNYLGWTSKDITNYAATIRREFREAKIHSNGRWRIVRAQKPLDA
B4: putative methyltransferase SMAC_06301 (protein, UniProt F7W6E4 1-385)
chain: MSSEGKAQLPTPEAASPKGEAKSPTPGPASPVQATSPTPGPAAPGTAAPGLLSGAHWADVGLPEEGAENDWDSTLGNDTESSTASISSSILKYRTINGRTYHSDSVTDGEYWGPNDEKQNEMLDISHHVMTLLLDGKLYTAPITDNPENIIDIGTGTGLWAIDMADEFPDCNVIGTDLSPNQPTWVPPNLRFEINDASKEWTYQPNFFDFIHMRWLTGAIRDWTAVYKEAYRCLKPGGWIEHMDSSGDALSHDNSLADDSALKQWGKIWQEGGKRLGNPVDLLPANLQEIGMKEAGFVNITKKDYLIPASPWPKDEKQKELGLYFSTTWTADLEGVCQFMFGNVMGWEKEEISAYFTHLKSELKDTSIHASVIYRVVYAQKPLDA
B5: GTPase-activating protein SAC7 (protein, UniProt F7W308 1-1105)
chain: MTSAATAAAPVAPAHVPPPPPPTSSQLQSHTQTQAQTQAQAQVQAHNQVAQAQAQAQAQAYSHSHTQSLSQPHHRAYNPYNAFAHHPQPPPPSKRDLKSWWKGFKLPSKHQEAHGIATPFTRSKPYRSTSLFAEDMEGCLSDLPEAVALLQEIVAQEVLIAARADARSQPTSVSLNRMSTGALFYEKPLQLETLARFLNWRLSRRCTGEDGSWPVQDPAKTKSVVPEPPKGIFGVPLRDSIKYANVAISLVDENGKSYIYGYVPIVVAKCGVFLKEKATDVEGIFRLSGSEKRIKELKTIFDSPDRYGKGLVWDGYTVHDAANVLRRYLNDLPEPVVPLELYEEFRKPLKGATRQAAGDTDGPQFVENFDMDAAIIRYQQLITELPPLNRQLMLYILDLLAVFAAKSDINRMNSQNLAAIFQPGMLSHPAHAMAPEEYRLNQCVIIFLIENQDHFLIGMQGTAADERTVQEVQKGTPTVNAPGTPKNYQSGVNRTASNASAGAESVSKEGMIRRNKSTSSRRSLASNGAPSPGSPALTSTPTGGLGRSNTLPSKRSPRVPPGRFAHRHDVSNSPVGPLTPVHPPSVPEVTPPTPTVLPPAPAVVYEVVTPPEESSVPSITTSTAPSSLLPSQSVQAARSQEKLLDPSAEAAAPSKERRMPNIPSIFQRAPTGENELRQPNKLRKKMPGAGGHYSAHSSTISLPRSAAASPAVEATNPMEMVPPLPGNLDAVVSSGQTAPSPSDSTPRASQAPSAPSTMLNPNNAPETQLKLRESPPTSVTSYNDMSDPDQVETQTTASFASPEVASPDRDKRRRWRLSRKKEDSISLHSPPNFSQPPISPRMLGSNSQAEGSNSSVGSSGYFHNQRPRASMSGDVSDAGMMSSLDDRSMMSDGTREGRDRDRDRDWDKSSEYRKSNIADWLKNKYREHRETAEQRRNKSPPAHDGRSASIGERIRKSIDTKREMNNGSERGYSDEHIPMPPLPPREPGPGNSQSSIQSSPQSFQQTQPQPAQAQQPPALYQTEQSVEVQLVAQTLPAQPSVQPEQPQLQHFQPQQVSVHQSQPQLSPEPLPQIPEQPTEAPVPAQAPIPTQAPIPTPSRHMDLDE
B6: PRO22 (STRIP1/2 homolog), endogenous (protein, UniProt F7VWV9 1-1120)
chain: MTIMNALWSKATSSSGDSAQKSAKPTNDAVNTTSEALPDLSERPNAPALPARPALQRNQPSAPPPAAPSNPPPPVPSGSGSGNANNASAQPQDSLSLAQLRRIVAEFPKSEPIAYDYVYSDMGPIEEEVDEWFFYDFWQYVRLNNANHAFDSAWVKMYGEDETWESVDDDGREKFVRNEVEQLQVSSDKTARVEAIGTLLYIVLGRWTATVKKANLPNLADHKVKSAATKEQLDAMKAGVKLLAKYGGLPPMWDALRKAFELFWADDGDASQRVQANNEELMELMHLMTILYISLQTTMDDVEDMAVARKELLALNPNLVHFMLHATAKLRWDDRNILPQAQVGSATFGIPVAANQHRMLMSSQVFLLFWKSLLLVFGGSKHIAEAKKATAETLSDVKDKEIITASPLDYHVFRQEITSKYPSYIPPQCAIPLEAEQTSILPPLPNHPTRNNGQNGILPGPPNQSASASILHQPVHIATPAPSPPPSPGVGGKGGKKQNYQTNQNFPFMYPPLDATSNSAGGKGGAGLQDLLVGRKWEGSDVPASIIEAGELFSTRTRMTRATRQLWEERERFLKFERGWEGADEDLIDELDLSELTLEEKEELGLLKESEKKKEKHGHEIDLGPRPVDDDIKRRLEAVEEFYKEALPHLQSLVIVLLKAIVAIASSFVQPPPGQQNPGPQNNGRAGGGPPQGRGQNNGNNASNDPPSPSDDNVDEARSREIAAKAVTGIMILLLKWLKLSHILKFEYFTQLLLDSNYLPLVLKLFALHDVQQVVESKTDRIEHSFFYFCASRSGVIPPQGLINPTATDFEDVDVSEDEAAPPAIKRNRSPPGAEKGGPPDASSQPTQQQQQQQRFENSDVQSRPEVDELGYPVNPLPKEPITDFSRRNFFSLINYLRVMQKICKHKAHRNLLLVHYKSSNILRKSLKVPQQELRLYTLKLFKNQVPYCGRKWRQSNMRVITAIYLHCRPELRDEWLSGSDVDAEVEEALPLEQALRSLTHWFNVQRYPERMGAEVTAAMREERDFFTRELEKSDWMGWEGIMAGGGMGMDGGGGGPEPMMGMQGMQGMPGMPGMGMGMNMGMPGMGIGGMPGMGGMAGIEYAAAAAAAQTEHENSMGWS
B7: two A phosphatase-associated protein 42 (TAP42), endogenous (protein, UniProt F7VNJ5 1-406)
chain: MSDQEPRSLKATFAAAEEKRLSLENSPPNPSDYADTLSAAIKLYQSCLSQISILSLFSSNEGLEDLNTNDLPYLLVNYHLAELIQKIPSPTPSPAERKRLLDQAREAYERYLHLLDSYEGLLNPTYKKRLERYTDSPTEFTVAGASASDPNARRNAKIANFKAEKELRQKLAYLRQRPEYAAADLELDDDESTTDQTGGGGNTGDEEVVRSVHLAHLDLCTHLTFQALESLNREMEVLNMAPREPASLPSAQLRGNNQAGAGNDMGAQDDLRRRQGGADPRDYSDRLDMPLSRLQGILGGSGPILSKEGRPLRPFTLTGTRQEIAKGVFRPSHNLPTMSIDEYLEEERRRGGIIEGGGEASWKAGEKNPDDEDDHEKLDAETMKARAWDEFVEANPKGAGNTLNRG
B8: protein phosphatase two A phosphatase activator 1 (PTPA1), endogenous (protein, UniProt F7VW68 1-658)
chain: MDTKFKPPGPPAGSSSSSPTTLPALPKLEILNPSSTLPSHRFLRPAKRINEGLDVSQFLTSKAYRDIGVWILQLNHALVPRVIKKSPAAATASASTSSEPKTESTEEDKQPKAEEEPPKDALTAKLQSLHKKKDEQRPREEIRTFPLPKGDEVKEEEPESIQKLQRLLKKVEAIIDEAPPNPGPRRFGNVSFRTWHKILEQRAEGLLREYLPGGVLRWETGGGGEKKEGVKKKEEEEGWEEEGADTETEGDGSADSDKKTNEQKTQEVVGPLEELKAYFLGGFGSAQRLDYGTGHELSFMMFLGGLWKLGGFEGEENDEDGEVERRIVLGVVEPYLRVIRRLILTYTLEPAGSHGVWGLDDHSFIPYIFGSAQYTRPISSPNEPTPLEGSVPNAPKPGDITKPTAVERYRTENMYFSAIGFINDVKKGPFWEHSPILFDVSGIKDGWGKINKGMIKMFNAEVLSKFPVVQHFPFGSLFRWEQDPQAGTPVQSVHMQNQPVASSAAAAAVTGGVGIPTERPSGTAAPWAQTQAPGVASGGGPGTTAPWAQKPSSAPGPGGITGTAAPWARAPTQAPTQAPGAGAGMAPPMTAAPWARSSGAGAGAEVGPSAANRFTPYKPTGVPGGAPDTGPAPPESFRSGTPGTASNQFAVTKAPWAK

Target: NTAP-PP2Ac1 (catalytic subunit 1 of protein phosphatase 2A with an N-terminal TAP tag) (Sordaria macrospora) (UniProt F7W245)
Test: affinity purification with mass spectrometry; tandem affinity purification (TAP) with NTAP-PP2Ac1 as bait from protein extract of the S. macrospora Δpp2Ac1::ntap-pp2Ac1 strain; TEV cleavage with AcTEV; tryptic digestion and MudPIT MS; four replicates; unspecific background and ribosomal proteins subtracted

binding, binds:
B1, B2, B3, B4, B5, B6, B7, B8

Results are given in words; binding and its absence hold for the method and conditions named. Binding seen in cells or lysates may run through a third protein. Here binding means that the protein was enriched with, or labelled near, the bait; the list need not be complete.
